The values below come from patent US9078928B2 (Institut Pasteur, priority 2011, dated 2015).

Data set [1] is described as follows: general procedure: Fmoc solid-phase peptide synthesis; Fmoc-Glu(tBu)-PHB-PS-resin; HATU/DIEA. Particulars: whole synthesis, overall, scale of the general procedure 100 μmoles.
Data set [2] can be described thus: general procedure: Fmoc solid-phase peptide synthesis; H-Ser(tBu)-2-ClTrt-PS-resin (0.78 mmole/g); Fmoc-Glu(tBu)-PHB-PS-resin (0.61 mmole/g) for E13; HATU/DIEA. Particulars: for isolated yield: whole synthesis, overall, scale of the general procedure 100 μmoles.

“NH2-(CH2)3-CO-EEEEEEEEEEEEE (N-terminal gamma-aminobutyric acid)”: the isolated yield in data set [1] was 73%.
“NH2-(CH2)3-CO-S-Asu-D-Asu-S-Asu-D-Asu-F-Asu-F-D-Asu-S” returned an isolated yield in data set [2] of 10%.
“NH2-(CH2)3-CO-S-Y-D-Y-S-Y-D-Y-S-Y-D-Y-S (SYDYSYDYSYDYS; N-terminal gamma-aminobutyric acid)” displayed an isolated yield in data set [2] of 8%.
“NH2-(CH2)3-CO-S-Y-D-Y-S-Y-D-YSO3-S-YSO3-D-YS03-S” registered an isolated yield in data set [2] of 46%.
Same read-out and setting: next, “NH2-(CH2)3-CO-S-YSO3-D-YSO3-S-YSO3-D-Y-S-Y-D-Y-S”: 41%; “NH2-(CH2)3-CO-S-YSO3-D-YSO3-S-YSO3-D-YSO3-S-YSO3-D-YS03-S”: 4%.
P3Asu-SATP displayed a step yield in data set [2] (late stage modification step) of 36%.
